Reference: doi:10.1101/470914

Biological target: T1, EGFP-PLPPR1 (Phospholipid Phosphatase-Related Protein Type 1) (UniProt Q8BFZ2)
T1 sequence: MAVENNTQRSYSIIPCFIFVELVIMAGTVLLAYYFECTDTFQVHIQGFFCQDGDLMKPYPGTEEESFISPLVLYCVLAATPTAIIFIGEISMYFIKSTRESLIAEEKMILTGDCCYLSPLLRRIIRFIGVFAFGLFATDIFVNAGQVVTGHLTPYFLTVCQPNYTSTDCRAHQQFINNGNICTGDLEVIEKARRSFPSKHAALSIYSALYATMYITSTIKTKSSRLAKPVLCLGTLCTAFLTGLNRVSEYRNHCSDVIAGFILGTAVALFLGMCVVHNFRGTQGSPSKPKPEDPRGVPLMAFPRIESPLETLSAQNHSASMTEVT
Assay: co-IP

binding: binds
Substance: RhoGDI (Rho Guanine Nucleotide Dissociation Inhibitor) (mouse (endogenous in Neuro2a))

No constants are given. Whether binding was seen depends on the method and setting. Binding seen in cells or lysates may run through a third protein. Binding calls can cover weak binding; strength is not graded here. Tags and fused reporters may be left off the sequences shown.
